Reference: PubChem BioAssay AID1259254 (NCATS, 2017)
The whole screen tested about 59,000 reagents; below is an unselected part. In the full data, about 1,550 (2.6%) are marked active. 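G2 share is only a proxy for re-replication; each gene was hit by three separate siRNAs, and active genes were retested.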 The numbers tell different reagents against one gene apart. Further read-outs or replicates are left out here. Not stated in the record: the amount of reagent.

Purpose: 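Gene knock-downs that lead to re-replication, shown by excess G2 DNA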 (primary screen)
Cell system: human HCT116 colorectal cancer cells
Reagents: single siRNA against human genes
Timing: 3 days
Measured: 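Nuclei stained with Hoechst and imaged; cell-cycle phase assigned by DNA content; G2 share scaled per plate, non-targeting siRNA 0%, GMNN siRNA 100%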
Scale: G2 robust z-score and G2 cells, % of GMNN control: higher = more G2 cells, more excess DNA replication
Rule for the call: 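Active siRNAs have a G2 robust z of 5 or more median absolute deviations over the median, which in these data means about 38% or higher of GMNN control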

{"target": "CEACAM22P (CEA cell adhesion molecule 22, pseudogene)", "siRNA no.": 1, "G2 robust z-score": -0.852, "G2 cells, % of GMNN control": -3.03, "Call": "inactive"}
{"target": "CEACAM22P (CEA cell adhesion molecule 22, pseudogene)", "siRNA no.": 2, "G2 robust z-score": 0.544, "G2 cells, % of GMNN control": 6.8, "Call": "inactive"}
{"target": "CEACAM22P (CEA cell adhesion molecule 22, pseudogene)", "siRNA no.": 3, "G2 robust z-score": -0.454, "G2 cells, % of GMNN control": -0.227, "Call": "inactive"}
{"target": "CNOT7 (CCR4-NOT transcription complex subunit 7)", "siRNA no.": 1, "G2 robust z-score": -0.423, "G2 cells, % of GMNN control": -0.0101, "Call": "inactive"}
{"target": "CNOT7 (CCR4-NOT transcription complex subunit 7)", "siRNA no.": 2, "G2 robust z-score": -1.51, "G2 cells, % of GMNN control": -7.67, "Call": "inactive"}
{"target": "CNOT7 (CCR4-NOT transcription complex subunit 7)", "siRNA no.": 3, "G2 robust z-score": -0.88, "G2 cells, % of GMNN control": -3.22, "Call": "inactive"}
{"target": "MOV10 (Mov10 RNA helicase)", "siRNA no.": 1, "G2 robust z-score": -0.35, "G2 cells, % of GMNN control": 0.507, "Call": "inactive"}
{"target": "MOV10 (Mov10 RNA helicase)", "siRNA no.": 2, "G2 robust z-score": -0.0377, "G2 cells, % of GMNN control": 2.7, "Call": "inactive"}
{"target": "MOV10 (Mov10 RNA helicase)", "siRNA no.": 3, "G2 robust z-score": 7.41, "G2 cells, % of GMNN control": 55.1, "Call": "active"}
{"target": "TONSL (tonsoku like, DNA repair protein)", "siRNA no.": 1, "G2 robust z-score": -0.6, "G2 cells, % of GMNN control": -1.25, "Call": "inactive"}
{"target": "TONSL (tonsoku like, DNA repair protein)", "siRNA no.": 2, "G2 robust z-score": 6.69, "G2 cells, % of GMNN control": 50, "Call": "active"}
{"target": "TONSL (tonsoku like, DNA repair protein)", "siRNA no.": 3, "G2 robust z-score": 0.39, "G2 cells, % of GMNN control": 5.71, "Call": "inactive"}
{"target": "AK8 (adenylate kinase 8)", "siRNA no.": 1, "G2 robust z-score": -1.12, "G2 cells, % of GMNN control": -4.88, "Call": "inactive"}
{"target": "AK8 (adenylate kinase 8)", "siRNA no.": 2, "G2 robust z-score": 0.217, "G2 cells, % of GMNN control": 4.5, "Call": "inactive"}
{"target": "AK8 (adenylate kinase 8)", "siRNA no.": 3, "G2 robust z-score": -0.868, "G2 cells, % of GMNN control": -3.14, "Call": "inactive"}
{"target": "EP400 (E1A binding protein p400)", "siRNA no.": 1, "G2 robust z-score": 2.94, "G2 cells, % of GMNN control": 23.7, "Call": "inactive"}
{"target": "EP400 (E1A binding protein p400)", "siRNA no.": 2, "G2 robust z-score": 1.36, "G2 cells, % of GMNN control": 12.6, "Call": "inactive"}
{"target": "EP400 (E1A binding protein p400)", "siRNA no.": 3, "G2 robust z-score": 3.33, "G2 cells, % of GMNN control": 26.4, "Call": "inactive"}
